{"source": "paper PMC9021192", "binders": {"B1": {"name": "caspase-2 (enzyme, UniProt P42575 1-452)", "chain": "MAAPSAGSWSTFQHKELMAADRGRRILGVCGMHPHHQETLKKNRVVLAKQLLLSELLEHLLEKDIITLEMRELIQAKVGSFSQNVELLNLLPKRGPQAFDAFCEALRETKQGHLEDMLLTTLSGLQHVLPPLSCDYDLSLPFPVCESCPLYKKLRLSTDTVEHSLDNKDGPVCLQVKPCTPEFYQTHFQLAYRLQSRPRGLALVLSNVHFTGEKELEFRSGGDVDHSTLVTLFKLLGYDVHVLCDQTAQEMQEKLQNFAQLPAHRVTDSCIVALLSHGVEGAIYGVDGKLLQLQEVFQLFDNANCPSLQNKPKMFFIQACRGDETDRGVDQQDGKNHAGSPGCEESDAGKEKLPKMRLPTRSDMICGYACLKGTAAMRNTKRGSWYIEALAQVFSERACDMHVADMLVKVNALIKDREGYAPGTEFHRCKEMSEYCSTLCRHLYLFPGHPPT"}}, "biological_target": "T1, p54nrb (nuclear RNA-binding protein 54 kDa) (human (endogenous in HeLa)) (UniProt Q15233)", "T1 sequence": "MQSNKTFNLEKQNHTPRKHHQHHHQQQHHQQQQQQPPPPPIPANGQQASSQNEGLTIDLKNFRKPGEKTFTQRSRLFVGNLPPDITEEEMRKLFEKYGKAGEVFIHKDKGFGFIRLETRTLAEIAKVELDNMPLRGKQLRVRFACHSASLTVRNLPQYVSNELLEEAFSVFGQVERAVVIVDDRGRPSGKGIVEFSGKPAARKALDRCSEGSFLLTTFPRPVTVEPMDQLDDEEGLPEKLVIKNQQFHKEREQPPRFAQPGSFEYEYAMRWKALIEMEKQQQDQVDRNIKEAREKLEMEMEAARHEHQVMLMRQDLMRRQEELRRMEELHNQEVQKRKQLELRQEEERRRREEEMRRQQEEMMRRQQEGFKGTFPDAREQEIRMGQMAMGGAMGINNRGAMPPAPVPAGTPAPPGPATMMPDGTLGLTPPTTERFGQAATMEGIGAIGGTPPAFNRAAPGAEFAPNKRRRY", "assay": "co-IP; endogenous p54nrb immunoprecipitated from 1 mg HeLa lysate (1% Triton X-100 lysis buffer) with 1 µg antibody overnight at 4 °C and protein-G sepharose beads; same amount and species of IgG as control; immunoblot of caspase-2", "note": "Results are given in words; binding and its absence hold for the method and conditions named. In cells and extracts the contact can be indirect. Some binding calls cover weakened binding; strength is not graded here."}
{"binder": "B1", "values": [{"measurement": "binding", "result": "binds"}]}
